# Test: Color of colored composition, visually evaluated
# Format: physicochemical
# Conditions: 3% by mass solution in n-hexane, visual
# Method: Each of the dyes shown above as Exemplary Compounds D-2, D-11, D-13, D-14, D-25, D-37, E-2, E-3, and E-7 was dissolved in a solvent (n-hexane) to make a 3% by mass solution, thereby preparing a colored composition (ink). Each of the colored compositions (inks) obtained was evaluated with respect to its color, absorption maximum wavelength (λmax), absorbance (abs), absorption coefficient (∈), viscosity, and relative dielectric constant, and solubility (% by mass) of each of the dyes in a solvent.
# 1. Color of Colored Composition
# The color of the colored composition was visually evaluated.
row,Compound,Color of Solution
1,CCCCCCCCCCCCN(CCCCCCCCCCCC)c1ccc(C=C2C(=O)ON=C2c2ccccc2)cc1 [D-2],Yellow
2,CCCCOC(=O)CN(CC(=O)OCCCC)c1ccc(C=C2C(=O)ON=C2C(C)(C)C)cc1 [D-11],Yellow
3,CCCCCCCCCCCCn1cc(C=C2C(=O)ON=C2c2ccccc2)c2ccccc21 [D-25],Yellow
4,CCCCCCN(CCCCCC)c1ccc(C=C2C(=O)ON=C2C(C)(C)C)c(C)c1 [D-37],Yellow
5,"Cc1cc(C=C2C(=O)ON=C2C(C)(C)C)c(C)n1-c1ccc(C(=O)O)cc1 [D-101, reference compound]",Not colored
6,"COc1ccc(C2=NOC(=O)C2=Cc2ccc(N(CC(=O)O)CC(=O)O)cc2)cc1 [D-102, reference compound]",Not colored
7,CCCCCCCCCCCCN(CCCCCCCCCCCC)c1ccc(C=CC=C2C(=O)ON=C2C(C)(C)C)c(C)c1 [E-2],Red-orange
8,CCCCCCCCN(CCCCCCCC)c1ccc(C=CC=C2C(=O)ON=C2C(C)(C)C)c(OC)c1 [E-3],Red
9,CCCCCCCCCCCCN(CCCCCCCCCCCC)c1ccc(C=CC=CC=C2C(=O)ON=C2C)c(C)c1 [E-7],Red

# Source: patent US9482923B2, “Colored composition and image display structure” (FUJIFILM CORPORATION, priority 2011, dated 2016)
